Reference: patent US20050227220A1, “Compositions and Methods for Evaluating and Designing Nuclear Receptor Ligands that Modulate Co-Regulator Affinity” (priority 2002, published 2005)
Where two headings read alike, the source gives them in different places. Results are given in words; binding and its absence hold for the method and conditions named. Some results given as binding are weak or reduced against the parent protein; the word gives no strength.

Sequences of proteins named here, by UniProt entry; tags and fusion partners are left off. A change or cut given only in a name is not applied to a line headed by its entry. A line that says so, or that is headed by a name, gives the form on record, which may keep a tag or linker. Residues count along the entry.
CREB binding protein fragment (CBP, residues 57-454) (P45481, form named): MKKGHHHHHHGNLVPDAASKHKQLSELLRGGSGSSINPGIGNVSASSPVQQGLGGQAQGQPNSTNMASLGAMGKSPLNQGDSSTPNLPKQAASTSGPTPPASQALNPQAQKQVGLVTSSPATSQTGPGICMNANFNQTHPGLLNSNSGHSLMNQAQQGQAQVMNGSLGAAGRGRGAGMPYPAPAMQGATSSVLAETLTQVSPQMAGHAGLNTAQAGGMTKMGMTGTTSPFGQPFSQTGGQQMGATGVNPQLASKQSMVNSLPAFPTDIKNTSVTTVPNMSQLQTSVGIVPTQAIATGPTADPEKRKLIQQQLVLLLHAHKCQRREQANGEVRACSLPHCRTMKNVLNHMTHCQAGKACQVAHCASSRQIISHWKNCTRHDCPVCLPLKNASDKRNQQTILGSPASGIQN
UniProt Q92731, residues 257-530: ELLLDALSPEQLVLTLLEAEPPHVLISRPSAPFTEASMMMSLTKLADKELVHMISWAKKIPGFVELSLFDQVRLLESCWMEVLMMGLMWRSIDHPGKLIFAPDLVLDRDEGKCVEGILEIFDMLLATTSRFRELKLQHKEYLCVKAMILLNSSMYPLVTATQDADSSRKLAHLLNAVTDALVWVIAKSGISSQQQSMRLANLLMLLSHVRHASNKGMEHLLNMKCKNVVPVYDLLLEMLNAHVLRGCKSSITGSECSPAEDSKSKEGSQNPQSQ

Experiments:
[1] = target: T1, Fluoroscein-SMRT ID-C peptide; assay: fluorescence polarization
T1 sequence (peptide, N-terminal fluorescein): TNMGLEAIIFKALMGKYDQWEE

[2] = target: CREB binding protein fragment (CBP, residues 57-454) (UniProt P45481); assay: time-resolved FRET (ratio 665 nm/610 nm) of labeled PPARγ LBD (10 nM per paragraph 52; paragraph 53 prints 10 mM) with CBP (57-454) at 25, 50, 100 and […] nM, with the GW1929 concentration varied
[3] = target: CREB binding protein fragment (CBP, residues 57-454) (UniProt P45481); assay: FRET, fitted factor α (fold change of the receptor-cofactor affinity at saturating ligand), PPAR LBD with CBP (57-454)
[4] = target: CREB binding protein fragment (CBP, residues 57-454) (UniProt P45481); assay: FRET, biotinylated LBD and CBP (57-454) on labelled streptavidin, with PPAR ligands
[5] = target: T1, Fluoroscein-SMRT ID-C peptide; assay: fluorescence polarization; remark: listed apart in the source
[6] = target: T2, Fluoroscein-NCOR ID-C peptide (NCoR amino acids 2251-2275); assay: fluorescence polarization
T2 sequence (peptide, N-terminal fluorescein): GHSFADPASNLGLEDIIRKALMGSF

| Molecule | binding [1] | binding [3] | binding [4] | binding [5] | further results |
| --- | --- | --- | --- | --- | --- |
| ERβ ligand binding domain (amino acids 257-530) (from UniProt Q92731 257-530) (receptor) | binds |  |  |  |  |
| human PPARγ ligand binding domain (amino acids 206-477) (receptor, range 206-477; placed at the N-terminus here; Biotinylated for FRET; also called PPARγ LBD) MKKGHHHHHHGPESADLRALAKHLYDSYIKSFPLTKAKARAILTGKTTDKSPFVIYDMNSLMMGEDKIKFKHITPLQEQSKEVAIRIFQGCQFRSVEAVQEITEYAKSIPGFVNLDLNDQVTLLKYGVHEIIYTMLASLMNKDGVLISEGQGFMTREFLKSLRKPFGDFMEPKFEFAVKFNALELDDSDLAIFIAVIILSGDRPGLLNVKPIEDIQDNLLQALELQLKLNHPESSQLFAKLLQKMTDLRQIVTEHVQLLQVIKKTETDMSLHPLLQEIYKDLY | binds | binds | binds |  | binding [2]: binds |
| human PPARα ligand binding domain (amino acids 192-468) (receptor) MKKGHHHHHHGEHDIEDSETADLKSLAKRIYEAYLKNFNMNKVKARVILSGKASNNPPFVIHDMETLCMAEKTLVAKLVANGIQNKEAEVRIFHCCQCTSVETVTELTEFAKAIPGFANLDLNDQVTLLKYGVYEAIFAMLSSVMNKDGMLVAYGNGFITREFLKSLRKPFCDIMEPKFDFAMKFNALELDDSDISLFVAAIICCGDRPGLLNVGHIEKMQEGIVHVLRLHLQSNHPDDIFLFPKLLQKMADLRQLVTEHAQLVQIIKKTESDAALHPLLQEIYRDMY |  | binds | binds | binds |  |
| TRβ ligand binding domain (receptor, UniProt P10828 202-461, looked up, also called Thyroid Receptor LBD; TRβ LBD) EELQKSIGHKPEPTDEEWELIKTVTEAHVATNAQGSHWKQKRKFLPEDIGQAPIVNAPEGGKVDLEAFSHFTKIITPAITRVVDFAKKLPMFCELPCEDQIILLKGCCMEIMSLRAAVRYDPESETLTLNGEMAVTRGQLKNGGLGVVSDAIFDLGMSLSSFNLDDTEVALLQAVLLMSSDRPGLACVERIEKYQDSFLLAFEHYINYRKHHVTHFWPKLLMKVTDLRMIGACHASRFLHMKVECPTELFPPLFLEVFED |  |  |  | binds | binding [6]: binds |
| RARα ligand binding domain (amino acids 146-432) (receptor, UniProt P10276 146-432, looked up, not shown: small tags and cut ends) QKCFEVGMSKESVRNDRNKKKKEVPKPECSESYTLTPEVGELIEKVRKAHQETFPALCQLGKYTTNNSSEQRVSLDIDLWDKFSELSTKCIIKTVEFAKQLPGFTTLTIADQITLLKAACLDILILRICTRYTPEQDTMTFSDGLTLNRTQMHNAGFGPLTDLVFAFANQLLPLEMDDAETGLLSAICLICGDRQDLEQPDRVDMLQEPLLEALKVYVRKRRPSRPHMFPKMLMKITDLRSISAKGAERVITLKMEIPGSMPPLIQEMLENSEGLDTLSGQPGGGGR |  |  |  | binds |  |
| RXRα ligand binding domain (amino acids 225-462) (receptor, UniProt P19793 225-462, looked up, range 225-462; Biotinylated for FRET; also called RXRα LBD; not shown: His-tag) SANEDMPVERILEAELAVEPKTETYVEANMGLNPSSPNDPVTNICQAADKQLFTLVEWAKRIPHFSELPLDDQVILLRAGWNELLIASFSHRSIAVKDGILLATGLHVHRNSAHSAGVGAIFDRVLTELVSKMRDMQMDKTELGCLRAIVLFNPDSKGLSNPAEVEALREKVYASLEAYCKHKYPEQPGRFAKLLLRLPALRSIGLKCLEHLFFFKLIGDTPIDTFLMEMLEAPHQMT | binds |  |  |  |  |
